Structures can show the parent of a compound that is named as a salt. The list shows a part of the results. Single values of this set are uncertain.

Experimental findings from the supplement of paper PMC10398353 are described below.

In the test the test system is Salmonella enterica serovar Typhimurium ST313 D23580. As to the kind of experiment: normalized bacterial growth (OD600 20 h minus 0 h, interquartile-mean normalized) (fraction of plate interquartile mean); higher = more bacterial growth (less inhibition). Conditions: LPM (pH 5.8, low phosphate, low Mg2+), concentration: 10 µM, temperature: 37 °C.
In turn, `Clc1ccc(C(Cn2ccnc2)OCc2c(Cl)cccc2Cl)c(Cl)c1` (stereo unspecified) [Isoconazole] returned a normalized bacterial growth of 0.957.

Compound `NC(=O)N1c2ccccc2C=Cc2ccccc21` [Carbamazepine] registered a normalized bacterial growth of 0.99.

For `CC[C@@H](C)[C@@H](O)[C@H](C)C(=O)[C@H](C)/C=C(\C)C[C@H](C)[C@@H]1OC(=O)[C@H]1CC`, the normalized bacterial growth worked out at 0.925.

As to `CN(C)CCN(Cc1cccs1)c1ccccn1` [Methapyrilene hydrochloride], the normalized bacterial growth came out at 0.916. `N=C1Sc2ccccc2C2=NCCCN12` gave a normalized bacterial growth of 1.09. In turn, `COc1ccc2c(c1)OCc1c-2oc2cc(OC)ccc12` returned a normalized bacterial growth of 0.737. In the case of `COc1ccc([C@H]2COc3c(ccc(O)c3OC)C2)c(OC)c1O` it was 0.979; in that of `COc1c(O[C@@H]2O[C@H](CO)[C@@H](O)[C@H](O)[C@H]2O)cc2c(c1OC)-c1ccc(SC)c(=O)cc1[C@@H](NC(C)=O)CC2` [Thiocolchicoside], 0.732; in that of `C[C@@H](N)[C@H]1CC[C@H](C(=O)Nc2ccncc2)CC1`, 0.896.

`O=C(Cn1ccnc1[N+](=O)[O-])NCCO` had a normalized bacterial growth of 1.27. The compound `CC(=O)OCC(COC(C)=O)OC(C)=O` returned a normalized bacterial growth of 1.03. Then `N=C(N)SCCc1cccc(CCSC(=N)N)c1` ["1,3-PBIT dihydrobromide"], with 1.1. In the case of `O=c1cc(-c2ccc(O)cc2)oc2cc(O)cc(O)c12` it was 1.4. Turning to `CCOc1cccc(C(=O)c2ccc(O)c(O)c2O)c1`, the normalized bacterial growth was determined as 1.05. The compound `O=C(N[C@@H](Cc1ccccc1)C(=O)CCl)OCc1ccccc1` [Z-L-Phe chloromethyl ketone] came in with a normalized bacterial growth of 1. `COc1cc(C(=O)O)cc(OC)c1O` showed a normalized bacterial growth of 1.11. Compound `Cc1cc2c(cc1Cl)N(C(=O)Nc1ccc(Oc3cccnc3C)nc1)CC2` displayed a normalized bacterial growth of 0.73. Then `Cc1scc2c1N(C(=O)CN1CCN(C)CC1)c1ccccc1NC2=O`, with 1.21; and `Cc1scc2c1N(C(=O)CN1CCN(C)CC1)c1ccccc1NC2=O` [Telenzepine dihydrochloride], with 1.1. As for `CN(C)CCC(c1ccc(Cl)cc1)c1ccccn1` (single isomer, unassigned; (+)) [(+)-Chlorpheniramine maleate], the normalized bacterial growth came to 0.694.

`C=C1c2cccc(O)c2C(=O)C2=C(O)[C@]3(O)C(=O)C(C(N)=O)=C(O)[C@@H](N(C)C)[C@@H]3[C@@H](O)[C@H]12` displayed a normalized bacterial growth of 0.0993. For the compound `c1ccc(C2CN3CCSC3=N2)cc1` (stereo unspecified) [Tetramisole hydrochloride], the normalized bacterial growth came to 0.611.

Turning to `COc1cc2cc3c4cc(OC)c(OC)cc4cc[n+]3c(C)c2cc1OC`, the normalized bacterial growth was determined as 0.925. `COc1cc2cc3c4cc(OC)c(OC)cc4cc[n+]3c(C)c2cc1OC` [Coralyne chloride hydrate] registered a normalized bacterial growth of 0.851. In the case of `CC(COc1ccc(/C=C/c2ccccc2)cc1)[N+](C)(C)C` (stereo unspecified), the normalized bacterial growth was 0.823. `OC[C@H]1O[C@H]([S-])[C@H](O)[C@@H](O)[C@@H]1O.[Au+]` had a normalized bacterial growth of 1.04. As to `OC[C@H]1O[C@H]([S-])[C@H](O)[C@@H](O)[C@@H]1O.[Au+]` [Aurothioglucose], the normalized bacterial growth is 0.92. In the case of `CCC(=O)N1CCN(C(=O)c2ccccc2)CC1` it was 1.21; in that of `Cc1cc(=O)oc2cc(O)ccc12` [Hymecromone], 1.17. For `CNC(=O)c1cc2c(cn1)[nH]c1ccccc12` [N-Methyl-beta-carboline-3-carboxamide], the normalized bacterial growth was 0.895. Compound `CNc1ncnc2c1ncn2[C@H]1C[C@H](OP(=O)(O)O)[C@@H](COP(=O)(O)O)O1` displayed a normalized bacterial growth of 1.16. In the case of `COc1ccc(CN(CCN(C)C)c2ccccn2)cc1` [Pyrilamine maleate], the normalized bacterial growth amounted to 0.905. On to `CCCNC(C)C(=O)Nc1ccccc1C` (stereo unspecified) [Prilocaine hydrochloride], for which the normalized bacterial growth amounted to 0.861. `Nc1ncn([C@@H]2O[C@H](CO)[C@@H](O)[C@H]2O)c(=O)n1` [5-azacytidine] gave a normalized bacterial growth of 0.0558.

With `CC(COc1ccccc1)N(CCCl)Cc1ccccc1` (stereo unspecified) [Phenoxybenzamine hydrochloride], the normalized bacterial growth stood at 1.17. `CC(=O)c1ccc(S(=O)(=O)NC(=O)NC2CCCCC2)cc1` [Acetohexamide] came in with a normalized bacterial growth of 1.15. In turn, `CCCCC[C@H](O)/C=C/[C@@H]1[C@@H](C/C=C\CCCC(=O)O)[C@@H](O)C[C@H]1O` came in with a normalized bacterial growth of 0.365. `CCCCC[C@H](O)/C=C/[C@@H]1[C@@H](C/C=C\CCCC(=O)O)[C@@H](O)C[C@H]1O` [Dinoprost trometamol]: the normalized bacterial growth was 0.874.

Consider `CCSC(=N)N` [S-Ethylisothiourea hydrobromide], for which the normalized bacterial growth came out at 1.13. For the compound `COc1cc(-c2coc3cc(O)c(OC)c(O)c3c2=O)cc(O)c1OC`, the normalized bacterial growth came to 0.941. In the case of `CCOC(=O)OC(C)OC(=O)[C@@H]1N2C(=O)[C@@H](NC(=O)[C@H](N)c3ccccc3)[C@H]2SC1(C)C` (stereo partly specified) it was 1.14; in that of `CCOC(=O)OC(C)OC(=O)[C@@H]1N2C(=O)[C@@H](NC(=O)[C@H](N)c3ccccc3)[C@H]2SC1(C)C` (stereo partly specified) [Bacampicillin hydrochloride], 0.683. In turn, `CCOC(=O)[C@H](CCc1ccccc1)N[C@H]1CCc2ccccc2N(CC(=O)O)C1=O` displayed a normalized bacterial growth of 1.37. On to `CC(C)CCC[C@@H](C)[C@H]1CC[C@H]2[C@@H]3CC[C@H]4C[C@H](O)CC[C@]4(C)[C@H]3CC[C@]12C`, for which the normalized bacterial growth worked out at 1.11. In the case of `O=C1CCC(c2ccc(-n3ccnc3)cc2)=NN1` [Imazodan], the normalized bacterial growth stood at 0.852.

Compound `COC1=C(OC)C(=O)C(CCCCCCCCCCO)=C(C)C1=O` returned a normalized bacterial growth of 0.626. The compound `CCNC(=O)N1CCN(CCCC(c2ccc(F)cc2)c2ccc(F)cc2)CC1` [Amperozide hydrochloride] yielded a normalized bacterial growth of 0.999. `Fc1ccc(C(OCCCc2cnc[nH]2)c2ccc(F)cc2)cc1` gave a normalized bacterial growth of 0.875. Turning to `NC1(C(=O)O)CCCC1`, the normalized bacterial growth was 1.01. `NCCCC[C@H](N[C@@H](CCc1ccccc1)C(=O)O)C(=O)N1CCC[C@H]1C(=O)O` [Lisinopril]: the normalized bacterial growth stood at 1.16. Turning to `NCCCC[C@H](N[C@@H](CCc1ccccc1)C(=O)O)C(=O)N1CCC[C@H]1C(=O)O`, the normalized bacterial growth is 1.07. Compound `CC(C)(C)NC[C@H](O)COc1nsnc1N1CCOCC1` [S(-)-Timolol maleate] yielded a normalized bacterial growth of 1.12. In turn, `CC(C)(C)NC[C@H](O)COc1nsnc1N1CCOCC1` came in with a normalized bacterial growth of 1.3. Consider `CC(C)(C)NC[C@H](O)COc1nsnc1N1CCOCC1` [Timolol maleate salt], for which the normalized bacterial growth worked out at 1.07. In the case of `C[C@]12CCC(=O)C=C1CC[C@@H]1[C@@H]2[C@@H](O)C[C@@]2(C)[C@H]1CC[C@]2(O)C(=O)COC(=O)CCC(=O)O` it was 1.15; in that of `c1ccc2c(c1)CCC[C@H]2Nc1nc2ccccc2[nH]1` [NS8593 hydrochloride], 0.696.
